# These are yes or no findings as the source states them, for the method shown. A result given as binding can be weak or reduced; the word gives no strength. Where a sequence is shown, tags or fusion partners need not be part of it.
# Target: coiled-coil domain of an SLK isoform (M83780) displayed on T7 phage (human)
# Assay: T7 phage display, H441 cDNA library, GST-fused bait
binder,measurement,value
"SULU1-coiled-coil2 GST fusion (Construct 1; amino acids 752-898) (protein, not shown: a dimerising Fc or GST) TILKTLKDEQTRKLAILAEQYEQSINEMMASQALRLDEAQEAECQALRLQLQQEMELLNAYQSKIKMQTEAQHERELQKLEQRVSLRRAHLEQKIEEELAALQKERSERIKNLLERQEREIETFDMESLRMGFGNLVTLDFPKEDYR",binding,binds
